Measured values as given in patent US20060025342A1 (OSTEOTROPHIN, published 2006).
These are yes or no findings as the source states them, for the method shown. Some entries that bind do so weakly or less than the wild type.

T1: human PTH/PTHrP receptor (PTH1 receptor) (human, UniProt Q03431 27-593)
T1 sequence (looked up): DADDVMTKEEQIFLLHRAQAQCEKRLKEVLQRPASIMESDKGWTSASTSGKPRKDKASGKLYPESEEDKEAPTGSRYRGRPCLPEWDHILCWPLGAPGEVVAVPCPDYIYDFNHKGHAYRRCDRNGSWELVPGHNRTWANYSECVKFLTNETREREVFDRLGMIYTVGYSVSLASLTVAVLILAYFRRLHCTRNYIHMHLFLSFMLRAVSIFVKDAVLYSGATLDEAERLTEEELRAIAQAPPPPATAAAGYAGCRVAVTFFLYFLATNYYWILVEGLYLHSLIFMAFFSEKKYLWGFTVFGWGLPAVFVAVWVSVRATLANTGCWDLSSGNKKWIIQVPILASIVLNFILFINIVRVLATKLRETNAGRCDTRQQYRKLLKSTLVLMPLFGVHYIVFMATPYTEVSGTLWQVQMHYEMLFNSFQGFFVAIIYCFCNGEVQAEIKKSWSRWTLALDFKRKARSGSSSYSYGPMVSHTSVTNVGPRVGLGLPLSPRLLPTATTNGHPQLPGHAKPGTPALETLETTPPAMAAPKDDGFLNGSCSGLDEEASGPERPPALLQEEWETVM

T2: canine renal PTH/PTHrP receptor (canine, UniProt Q9TU31 29-595)
T2 sequence (looked up): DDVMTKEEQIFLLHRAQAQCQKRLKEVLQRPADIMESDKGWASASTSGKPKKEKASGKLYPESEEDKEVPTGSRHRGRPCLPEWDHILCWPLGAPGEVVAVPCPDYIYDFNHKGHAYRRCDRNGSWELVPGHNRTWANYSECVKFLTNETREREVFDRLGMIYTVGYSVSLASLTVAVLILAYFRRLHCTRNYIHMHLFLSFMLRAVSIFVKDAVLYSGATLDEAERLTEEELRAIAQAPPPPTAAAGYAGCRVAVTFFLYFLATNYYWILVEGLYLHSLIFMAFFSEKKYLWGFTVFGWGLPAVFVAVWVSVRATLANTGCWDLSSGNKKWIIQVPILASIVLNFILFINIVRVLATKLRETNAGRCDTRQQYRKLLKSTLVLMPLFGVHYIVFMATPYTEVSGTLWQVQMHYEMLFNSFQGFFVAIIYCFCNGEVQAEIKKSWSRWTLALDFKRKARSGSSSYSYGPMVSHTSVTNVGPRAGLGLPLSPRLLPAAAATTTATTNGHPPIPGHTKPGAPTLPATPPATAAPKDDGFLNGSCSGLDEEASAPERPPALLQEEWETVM


Columns and labels:
[1] = target: T1, human PTH/PTHrP receptor (PTH1 receptor); test: competition binding, human RCM and SaOS-2 membranes
[2] = target: T1, human PTH/PTHrP receptor (PTH1 receptor); test: competition of 125I-(Tyr36)hPTHrP-(1-36)NH2 binding, human RCM, SaOS-2 membranes, intact SaOS-2 cells
[3] = target: T2, canine renal PTH/PTHrP receptor; test: competition of 125I-[Tyr36]PTHrP-(1-36)amide binding, canine renal cortical membranes, 20 C
Description: Binding assays were conducted in siliconized 12×75 mm borosilicate glass test tubes at 20° C. in a final volume of 0.2 ml. […] Binding was initiated by adding 50 μg membrane. At the end of the incubation periods described, 50 μl triplicate aliquots were layered onto 300 μl of iced binding buffer containing 1.0% BSA in 500 μl polypropylene tubes. The tubes were centrifuged at approximately 16,000×g for three min at 4° C. in a microcentrifuge. The supernatant was aspirated and the tip of the tube containing the membrane-associated radioligand was cut off. Radioactivity in both the pellet and supernatant was measured.
Dissociation constants (Kd) were determined by Scatchard analysis of the data obtained from competitive binding experiments using radioligand and increasing concentrations of unlabeled ligand. […] Statistical differences were assessed by paired Student's t test. […] Significance was determined using a partial F-test.

[4] = target: T2, canine renal PTH/PTHrP receptor; test: competition binding with both radioligands, canine renal cortical membranes

| Binder | binding [1] | binding [2] | binding [3] | binding [4] |
| --- | --- | --- | --- | --- |
| SVSEIQLMHNLGKHLNSMERVEWLRKKLQDVHNY (norleucine (Nle) at 8 and 18 in place of Met) [(Nle^8,18, Tyr^34)hPTH-(1-34)] | binds | binds | – | – |
| SVSEIQLMHNLGKHLNSMERVEWLRKKLQDVHNY (norleucine (Nle) at 8 and 18 in place of Met; C-terminal amide) [[Nle^8,18,Tyr^34]hPTH-(1-34)amide] | – | – | binds | binds |
